According to the supplement of paper PMC8256030:
“And” between values parts separate entries of the source, which are not always exact repeats. Equal values may be shown once. Where a name gives a salt, the structure may show the parent alone. The list shows a part of the results. Single values are uncertain here, since repeats match poorly.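 HEK293T cells were given each compound shortly before transfection with a reporter in which red mCherry is followed by the SARS-CoV-2 frameshift element and then GFP in the −1 frame, so GFP appears only after frameshifting.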

How the values were obtained:
[1] = test system: SARS-CoV-2 -1 PRF reporter mCherry-FSE-GFP(-1); experiment: mCherry (red) intensity as percent of control; higher = higher upstream reporter expression; conditions: 10 µM; 24 h; HEK293T
[2] = test system: SARS-CoV-2 -1 PRF reporter mCherry-FSE-GFP(-1); experiment: percent effect, decrease of GFP/mCherry ratio (-1 PRF reporter) relative to controls; higher = stronger frameshift inhibition; conditions: 10 µM; 24 h; HEK293T

Row | Compound | mCherry [1] | percent effect [2]
1 | Cc1cc(C)[n+](/N=C(\[O-])c2ccc(Cl)c(S(N)(=O)=O)c2)c(C)c1 [besulpamide] | 72.8% | -1.88%
2 | CC(=O)O[C@]1(C(C)=O)CC[C@H]2[C@@H]3C=C(Cl)C4=CC(=O)CC[C@]4(C)[C@H]3CC[C@@]21C | 141% | 1.14%
3 | CCCSS/C(CCO)=C(/C)N(C=O)Cc1cnc(C)nc1N [prosultiamine] | 95.5% | -1.6%
4 | CC(C)c1ccccc1 [Sucralfate] | 89.7% | -6.66%
5 | CC(C)=CCC/C(C)=C/CC/C(C)=C/CSc1ccccc1C(=O)O [salirasib] | 103% | -0.961%
6 | CN1C(C(=O)Nc2ccccn2)=C(O)c2sc(Cl)cc2S1(=O)=O [Lornoxicam] | 82% | -2.15%
7 | CNCCC(Oc1ccccc1OC)c1ccccc1 (stereo unspecified) [Nisoxetine·HCl] | 77.5% | -1.37%
8 | O=C(O)C[C@H](O)C[C@H](O)/C=C/c1c(C2CC2)nc2ccccc2c1-c1ccc(F)cc1 [Pitavastatin] | 79.9% | -4.24%
9 | C[C@]12C=CC(=O)N[C@@H]1CC[C@@H]1[C@@H]2CC[C@]2(C)[C@@H](C(=O)Nc3cc(C(F)(F)F)ccc3C(F)(F)F)CC[C@@H]12 [dutasteride] | 82.2% and 93.6% | -2.57% and -8.77%
10 | CCN(CC)CCOC(=O)C(c1ccccc1)c1ccccc1 | 108% | -2.75%
11 | O=S(=O)(O)c1cc(I)c(O)c2ncccc12 | 110% | 3.45%
12 | CNC[C@H](O)[C@@H](O)[C@H](O)[C@H](O)CO [Meglumine] | 104% | 0.85%
13 | CC(C)c1ncc([N+](=O)[O-])n1C [ipronidazole] | 85.8% | -1.54%

Quoted at random: 2 records from the list
Row | Compound | mCherry [1] | percent effect [2]
13 | CC(C)c1ncc([N+](=O)[O-])n1C [ipronidazole] | 85.8% | -1.54%
8 | O=C(O)C[C@H](O)C[C@H](O)/C=C/c1c(C2CC2)nc2ccccc2c1-c1ccc(F)cc1 [Pitavastatin] | 79.9% | -4.24%
